In PubChem BioAssay AID2685 (National Center for Advancing Translational Sciences (NCATS), 2010):
Some of the results follow. The main result of the screen is listed elsewhere. These columns were measured beside it and carry no call. The list favours compounds with an active or inconclusive main result. The note in brackets gives the kind of curve behind each potency; many fits are weak.

Experiment: qHTS Assay for Lipid Storage Modulators in Drosophila S3 Cells;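 on cell number change: cells counted by Cell Tracker Red CMTPX staining in the red channel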
Conditions: BODIPY lipid droplet fluorescence, 18-24 h; for cell number change: measured here: cell count max response, cells fed with added oleic acid
Procedure, shortened: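 Laser-scanning cytometry quantifies lipid droplet accumulation (500–530 nm total intensity; droplet/cell object ratio) in oleic acid-fed (400 uM added) Drosophila S3 cells treated with a concentration series. 20 uM Triacsin C defined 100% inhibition.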

[1] = measured here: cell number channel AC50, cells fed with added oleic acid
[2] = measured here: lipid fluorescence (Fed channel) AC50, cells fed with added oleic acid

Structure (SMILES) | cell number change [%] | AC50 [1] | AC50 [2]
CC(Oc1ccc(Br)cc1Cl)C(=O)Nc1ccncc1 (configuration not stated) | -39.3 | 11.6 µM [falling, partial curve] | 8.2 µM [falling, partial curve]
CCOc1ccc(C(=O)Nc2cccc(C(=O)O)c2)cc1Cl | -26.6 | 0.00461 µM [falling, full curve, poor fit] | 8.2 µM [falling, partial curve]
CCOC(=O)C1CCCN(C(=O)Cn2nc(CC)n3c(cc4sccc43)c2=O)C1 (configuration not stated) | 23.3 | – | 0.461 µM [rising, full curve, poor fit]
COc1cc(C2Nc3ccc4ccccc4c3C3=C2C(=O)CC(C)(C)C3)ccc1OCC(=O)O (configuration not stated) | 2.55 | – | –
COc1ccccc1OCCn1c(=O)sc2ccccc21 | 161 | 16.4 µM [rising, partial curve] | 20.6 µM [rising, partial curve]
Cc1nn(CC(=O)NCc2ccccc2Cl)c(C)c1[N+](=O)[O-] | -64.9 | 5.17 µM [falling, full curve, poor fit] | –
COc1ccc2c(c1)C(c1ccc(N3CCOCC3)cc1)=NNC(c1cccnc1)=N2 | 39 | 9.2 µM [rising, partial curve] | 8.2 µM [rising, partial curve, poor fit]
NCCCC[C@@H](C(=O)NCCCCCCCCCCC(=O)N1CCNCC1)n1cc(CCCC(=O)O)nn1 | -4.92 | – | 6.51 µM [rising, partial curve, poor fit]
CCOC(=O)C1CCCN(S(=O)(=O)Cc2ccccc2)C1 (configuration not stated) | 18 | – | 29.1 µM [rising, single point]
C[C@@]12C(=O)N(Cc3ccccc3)CC(=O)N1[C@H]1c3cc(Cl)ccc3OC[C@@H]1[C@@H]2c1ccccc1 | -9.03 | – | 0.82 µM [rising, full curve]
Cc1ccc(S(=O)(=O)NC2CCCC2)cc1C | 67.5 | 8.2 µM [rising, partial curve] | –
Cc1nc2ccccc2c(=O)n1NC(=O)c1ccc(Cl)cc1 | -33.3 | 11.6 µM [falling, single point] | –
CCCS(=O)(=O)N1CCN(CCN2C(=O)c3cccc4cccc(c34)C2=O)CC1 | 19.5 | – | –
O=C(CN1CCN(CN2C(=O)NC3(CCCCCC3)C2=O)CC1)Nc1cccc(F)c1 | -2.57 | – | –
Cc1ccc(NC(=O)CN2C(=O)NC(Cc3c[nH]c4ccccc34)C2=O)cc1S(=O)(=O)N1CCCCC1 (configuration not stated) | 12.7 | – | 13 µM [rising, partial curve]
CC(=O)c1cc2c(cc1NC(=O)CN1CCCCCCC1)OCO2 | – | – | 0.517 µM [rising, single point]
